What was measured:
[1] = general procedure: Fmoc solid-phase peptide synthesis; Rink amide; details: whole synthesis, scale 50 μmol
[2] = general procedure: Fmoc solid-phase peptide synthesis; pre-loaded aminoethanthiol trityl resin; details: whole synthesis, thioether ring
[3] = general procedure: Fmoc solid-phase peptide synthesis; trityl; details: whole synthesis, scale 50 μmol
[4] = general procedure: Fmoc solid-phase peptide synthesis; polystyrene (PS or DEG cross-linked), ChemMatrix (CM) or TentaGel (TG) resin; trityl, Wang and Rink amide linkers; details: for conjugation yield: conjugation step; for step yield: late stage modification step
[5] = general procedure: Fmoc solid-phase peptide synthesis; WANG Tentagel; details: whole synthesis, thioether ring
[6] = general procedure: Fmoc solid-phase peptide synthesis; Fmoc-Cys(Trt) WANG Tentagel; details: whole synthesis, scale 50 μmol, thioether ring
[7] = overall from 3BP-4089, thioether ring

Substance: Ac-Met-[Cys(3MeBn)-Pro-Pro-Thr-Glu-Phe-Cys]-Asp-His-Nmf-Arg-Asp-NH2
- isolated mass ([1]; thioether ring): 8.61 mg
- isolated yield ([1]; thioether ring): 9.8%

Substance: DOTA-Ttds-Leu-[Cys(3MeBn)-Pro-Pro-Thr-Glu-Phe-Cys]-Asp-His-Phe-Arg-Asp-NH2
- isolated mass ([1]; thioether ring): 35.46 mg
- isolated yield ([1]; thioether ring): 29.8%

Substance: Hex-Cys(tMeBn(H-PP))-Pro-Pro-Thr-Gln-Phe-Cys]-Asp-NH2
- isolated yield ([1]; on resin loading, run 1): 25.3%
- isolated yield ([1]; on resin loading, run 2): 28.4%
- isolated mass ([1]; run 1): 15.3 mg
- isolated mass ([1]; run 2): 17.2 mg

Substance: Hex-[Cys(3MeBn)-Pro-Pro-Thr-Gln-Phe-Cys]-Asp-NH2
- isolated mass ([1]; thioether ring, run 1): 16.0 mg
- isolated yield ([1]; thioether ring, run 1): 28.8%
- isolated mass ([1]; thioether ring, run 2): 16.9 mg
- isolated yield ([1]; thioether ring, run 2): 30.4%

Substance: Hex-[Cys(3MeBn)-Pro-Pro-Thr-Glu-Phe-Cys]-Asp-His-Ppa-arg-Ttds-Lys(DOTA)-NH2
- isolated mass ([1]; thioether ring): 17.18 mg
- isolated yield ([1]; thioether ring): 14.5%

Substance: Hex-[Cys(tMeBn(DOTA-AET))-Pro-Pro-Thr-Gln-Phe-AET]
- isolated yield ([2]; overall, scale of the general procedure 50 μmol and 100 μmol): 29.8% overall yield
- isolated mass [2]: 21.25 mg

Substance: Hex-[Cys(tMeBn(DOTA-AET))-Pro-Pro-Thr-Gln-Phe-Cysol] [3BP-3762]
- isolated yield ([3]; overall, thioether ring): 10.7% overall yield
- isolated mass ([3]; thioether ring): 7.8 mg

Substance: Hex-[Cys(tMeBn(DTPA(tBu)4-O2Oc-AET))-Pro-Pro-Thr-Gln-Phe-Cys]-OH
- conjugation yield [4]: 53% yield

Substance: Hex-[Cys(tMeBn(H-AET))-Pro-Pro-Thr-Gln-Phe-Cys]-OH
- isolated yield ([3]; on resin loading, run 1): 32.8%
- isolated yield ([3]; on resin loading, run 2): 35.9%
- isolated mass ([3]; run 1): 17.8 mg
- isolated mass ([3]; run 2): 19.47 mg

Substance: Hex-[Cys(tMeBn(H-O2Oc-AET))-Pro-Pro-Thr-Gln-Phe-Cys]-OH
- conjugation yield [4]: 29% yield

Substance: Hex-[Cys(tMeBn(NODAGA-AET))-Pro-Pro-Thr-Gln-Phe-Cys]-OH
- step yield ([4]; thioether ring): 80%

Substance: Hex-[Cys-(tMeBn(Bio-Ttds-Ttds-Ttds-Ttds-AET))-Pro-Pro-Thr-Gln-Phe-Cys]-OH
- conjugation yield ([4]; thioether ring): 18% yield

Substance: Hex-[Cys-(tMeBn(DTPA2-AET))-Pro-Pro-Thr-Gln-Phe-Cys]-OH
- isolated mass ([5]; scale 100 μmol): 5.8 mg
- isolated yield ([5]; scale 100 μmol): 3.9%

Substance: Hex-[Cys-(tMeBn(DTPA2-Ttds-AET))-Pro-Pro-Thr-Gln-Phe-Cys]-OH
- isolated mass ([5]; scale 100 μmol): 6.87 mg
- isolated yield ([5]; scale 100 μmol): 3.9%

Substance: Hex-[Cys-(tMeBn(DTPA-AET))-Pro-Pro-Thr-Gln-Phe-Cys]-OH
- conjugation yield ([4]; thioether ring): 22.9% yield

Substance: Hex-[Cys-(tMeBn(DTPA-O2Oc-AET))-Pro-Pro-Thr-Gln-Phe-Cys]-OH
- conjugation yield [4, 7]: overall yield: 8%
- step yield ([4]; thioether ring): 53% yield

Substance: Hex-[Cys-(tMeBn(DTPABzl-Glutar-AET))-Pro-Pro-Thr-Gln-Phe-Cys]-OH
- isolated mass ([5]; scale 100 μmol): 10.53 mg
- isolated yield ([5]; scale 100 μmol): 6.3%

Substance: Hex-[Cys-(tMeBn(H-Asp-Asp-Cys-Ttds-AET))-Pro-Pro-Thr-Gln-Phe-Cys]-OH
- isolated mass ([5]; scale 100 μmol): 5.52 mg
- isolated yield ([5]; scale 100 μmol): 3.2%

Substance: Hex-[Cys-(tMeBn(H-HYNIC-AET))-Pro-Pro-Thr-Gln-Phe-Cys]-OH
- conjugation yield [4, 7]: overall yield: 3.4%
- step yield ([4]; thioether ring): 7% yield

Substance: Hex-[Cys-(tMeBn(H-SAc-Ser-Ser-Ser-AET))-Pro-Pro-Thr-Gln-Phe-Cys]-OH
- isolated mass ([5]; scale 100 μmol): 5.25 mg
- isolated yield ([5]; scale 100 μmol): 3.7%

Substance: Hex-[Cys-(tMeBn(N4Ac-O2Oc-AET))-Pro-Pro-Thr-Gln-Phe-Cys]-OH
- conjugation yield ([4]; thioether ring): 55% yield

Substance: Hex-[Cys-(tMeBn(NODAGA-AET))-Pro-Pro-Thr-Gln-Phe-Cys]-OH
- conjugation yield ([4]; thioether ring): 33.7% yield

Substance: Hex-[Cys-(tMeBn(NODAGA-O2Oc-AET))-Pro-Pro-Thr-Gln-Phe-Cys]-OH
- isolated mass ([5]; scale 50 μmol): 4.31 mg
- isolated yield ([5]; scale 50 μmol): 5.4%

Substance: Hex-[Cys-(tMeBn(NOTA-AET))-Pro-Pro-Thr-Gln-Phe-Cys]-OH
- isolated mass ([5]; scale 100 μmol): 5.6 mg
- isolated yield ([5]; scale 100 μmol): 4%

Substance: Hex-[Cys-(tMeBn(NOTA-Ttds-AET))-Pro-Pro-Thr-Gln-Phe-Cys]-OH
- isolated mass ([5]; scale 100 μmol): 10.1 mg
- isolated yield ([5]; scale 100 μmol): 6%

Substance: Hex-[Cys-(tMeBn(ReON4Ac-O2Oc-AET))-Pro-Pro-Thr-Gln-Phe-Cys]-OH
- step yield ([4]; thioether ring): 21% yield

Substance: N4Ac-Glu(AGLU)-Ttds-Nle-[Cys-(3MeBn)-Pro-Pro-Thr-Gln-Phe-Cys]-OH
- isolated mass [6]: 8.97 mg
- isolated yield [6]: 10%

Substance: Pentyl-SO2-[Cys(tMeBn(DOTA-PP))-Pro-Pro-Thr-Gln-Phe-Cys]-Asp-NH2
- isolated yield ([4]; whole synthesis, overall, scale 50 μmol, thioether ring): 8.7% overall yield
- isolated mass ([4]; whole synthesis, scale 50 μmol, thioether ring): 7.09 mg

Substance: Pentyl-SO2-[Cys(tMeBn(H-PP))-Pro-Pro-Thr-Gln-Phe-Cys]-Asp-NH2
- isolated mass [1]: 9.15 mg
- isolated yield [1]: 14.7%

— patent US20220315554A1 (priority 2019, published 2022)
